The list shows a part of the results.

By UniProt entry, the sequences of proteins in these tests, tags left out. Where a name states a change or a piece, a line headed by the entry shows the natural chain unless it says otherwise.
UniProt Q15004: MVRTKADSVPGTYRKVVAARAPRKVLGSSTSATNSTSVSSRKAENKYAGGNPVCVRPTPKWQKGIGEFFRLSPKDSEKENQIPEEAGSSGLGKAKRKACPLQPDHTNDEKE
UniProt P49585: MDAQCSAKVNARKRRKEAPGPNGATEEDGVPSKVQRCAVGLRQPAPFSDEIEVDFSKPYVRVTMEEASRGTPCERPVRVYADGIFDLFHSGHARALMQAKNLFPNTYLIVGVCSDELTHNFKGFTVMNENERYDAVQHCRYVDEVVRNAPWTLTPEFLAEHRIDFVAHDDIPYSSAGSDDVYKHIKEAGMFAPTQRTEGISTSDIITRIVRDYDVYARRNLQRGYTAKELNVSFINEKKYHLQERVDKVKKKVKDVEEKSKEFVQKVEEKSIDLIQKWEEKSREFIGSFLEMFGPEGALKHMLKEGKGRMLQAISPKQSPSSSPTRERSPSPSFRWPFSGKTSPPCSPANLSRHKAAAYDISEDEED
UniProt O00408, whole entry, looked up: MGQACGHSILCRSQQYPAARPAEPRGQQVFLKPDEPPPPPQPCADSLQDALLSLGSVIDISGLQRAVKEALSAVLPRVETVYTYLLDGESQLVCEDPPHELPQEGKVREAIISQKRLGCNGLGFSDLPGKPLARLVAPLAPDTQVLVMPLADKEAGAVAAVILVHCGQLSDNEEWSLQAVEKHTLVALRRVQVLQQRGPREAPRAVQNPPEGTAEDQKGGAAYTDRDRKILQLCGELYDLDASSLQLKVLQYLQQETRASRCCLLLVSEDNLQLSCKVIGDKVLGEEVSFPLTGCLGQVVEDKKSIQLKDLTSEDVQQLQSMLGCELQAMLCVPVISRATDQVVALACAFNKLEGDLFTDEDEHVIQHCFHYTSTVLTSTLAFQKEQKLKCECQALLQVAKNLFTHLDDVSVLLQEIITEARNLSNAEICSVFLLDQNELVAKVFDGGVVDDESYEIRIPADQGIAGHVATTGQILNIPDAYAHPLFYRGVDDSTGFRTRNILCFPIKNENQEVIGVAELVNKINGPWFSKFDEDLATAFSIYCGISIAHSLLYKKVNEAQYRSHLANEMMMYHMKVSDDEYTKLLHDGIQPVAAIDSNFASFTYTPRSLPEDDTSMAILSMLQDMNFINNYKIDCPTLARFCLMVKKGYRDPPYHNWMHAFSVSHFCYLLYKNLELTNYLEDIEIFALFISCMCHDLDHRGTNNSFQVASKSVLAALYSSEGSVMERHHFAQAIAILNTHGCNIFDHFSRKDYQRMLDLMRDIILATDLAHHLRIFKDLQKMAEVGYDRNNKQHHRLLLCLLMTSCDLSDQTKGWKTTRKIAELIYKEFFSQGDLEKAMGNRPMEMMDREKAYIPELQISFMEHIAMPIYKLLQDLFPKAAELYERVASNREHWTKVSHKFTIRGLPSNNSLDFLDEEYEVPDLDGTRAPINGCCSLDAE
UniProt O95453: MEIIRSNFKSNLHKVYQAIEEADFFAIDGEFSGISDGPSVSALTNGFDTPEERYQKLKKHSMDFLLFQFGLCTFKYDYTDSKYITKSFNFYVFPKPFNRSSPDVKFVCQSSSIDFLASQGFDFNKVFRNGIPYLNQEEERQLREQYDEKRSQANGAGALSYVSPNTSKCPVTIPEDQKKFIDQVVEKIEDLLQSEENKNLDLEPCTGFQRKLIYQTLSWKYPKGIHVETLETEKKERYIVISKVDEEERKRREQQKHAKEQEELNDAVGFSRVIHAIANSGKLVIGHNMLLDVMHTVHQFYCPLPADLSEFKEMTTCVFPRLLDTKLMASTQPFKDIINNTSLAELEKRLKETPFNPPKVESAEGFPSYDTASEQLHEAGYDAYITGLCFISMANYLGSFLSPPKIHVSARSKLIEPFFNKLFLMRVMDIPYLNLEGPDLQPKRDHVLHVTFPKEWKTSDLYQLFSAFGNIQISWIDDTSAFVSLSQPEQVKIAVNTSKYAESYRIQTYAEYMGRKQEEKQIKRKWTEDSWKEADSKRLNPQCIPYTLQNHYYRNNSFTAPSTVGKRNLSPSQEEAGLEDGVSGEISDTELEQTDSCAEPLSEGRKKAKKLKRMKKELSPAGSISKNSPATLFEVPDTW
UniProt Q6VY07, whole entry, looked up: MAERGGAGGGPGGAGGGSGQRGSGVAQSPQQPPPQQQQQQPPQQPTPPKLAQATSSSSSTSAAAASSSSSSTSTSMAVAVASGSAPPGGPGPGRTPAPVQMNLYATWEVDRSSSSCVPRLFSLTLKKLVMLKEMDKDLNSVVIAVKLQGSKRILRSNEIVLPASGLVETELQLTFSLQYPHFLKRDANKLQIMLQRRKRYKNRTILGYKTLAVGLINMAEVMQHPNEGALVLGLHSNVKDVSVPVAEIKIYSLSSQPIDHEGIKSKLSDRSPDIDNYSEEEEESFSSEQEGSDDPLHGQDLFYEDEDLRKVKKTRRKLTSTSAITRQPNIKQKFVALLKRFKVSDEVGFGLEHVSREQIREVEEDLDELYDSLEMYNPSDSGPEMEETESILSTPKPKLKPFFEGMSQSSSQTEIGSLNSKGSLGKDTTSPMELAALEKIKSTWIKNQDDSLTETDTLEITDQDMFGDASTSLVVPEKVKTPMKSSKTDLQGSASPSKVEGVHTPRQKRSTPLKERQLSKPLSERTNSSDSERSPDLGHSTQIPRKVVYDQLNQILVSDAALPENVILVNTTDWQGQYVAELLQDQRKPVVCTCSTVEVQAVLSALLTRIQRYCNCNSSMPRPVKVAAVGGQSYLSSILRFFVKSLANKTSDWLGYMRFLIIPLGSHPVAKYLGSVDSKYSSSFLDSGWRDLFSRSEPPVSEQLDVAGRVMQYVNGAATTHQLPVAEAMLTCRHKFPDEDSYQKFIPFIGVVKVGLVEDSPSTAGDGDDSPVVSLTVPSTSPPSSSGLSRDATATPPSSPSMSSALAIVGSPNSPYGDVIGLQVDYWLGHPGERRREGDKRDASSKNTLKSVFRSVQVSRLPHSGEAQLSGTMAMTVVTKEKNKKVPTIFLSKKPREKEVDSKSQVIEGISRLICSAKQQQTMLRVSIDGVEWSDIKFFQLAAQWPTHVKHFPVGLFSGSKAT
UniProt O95613: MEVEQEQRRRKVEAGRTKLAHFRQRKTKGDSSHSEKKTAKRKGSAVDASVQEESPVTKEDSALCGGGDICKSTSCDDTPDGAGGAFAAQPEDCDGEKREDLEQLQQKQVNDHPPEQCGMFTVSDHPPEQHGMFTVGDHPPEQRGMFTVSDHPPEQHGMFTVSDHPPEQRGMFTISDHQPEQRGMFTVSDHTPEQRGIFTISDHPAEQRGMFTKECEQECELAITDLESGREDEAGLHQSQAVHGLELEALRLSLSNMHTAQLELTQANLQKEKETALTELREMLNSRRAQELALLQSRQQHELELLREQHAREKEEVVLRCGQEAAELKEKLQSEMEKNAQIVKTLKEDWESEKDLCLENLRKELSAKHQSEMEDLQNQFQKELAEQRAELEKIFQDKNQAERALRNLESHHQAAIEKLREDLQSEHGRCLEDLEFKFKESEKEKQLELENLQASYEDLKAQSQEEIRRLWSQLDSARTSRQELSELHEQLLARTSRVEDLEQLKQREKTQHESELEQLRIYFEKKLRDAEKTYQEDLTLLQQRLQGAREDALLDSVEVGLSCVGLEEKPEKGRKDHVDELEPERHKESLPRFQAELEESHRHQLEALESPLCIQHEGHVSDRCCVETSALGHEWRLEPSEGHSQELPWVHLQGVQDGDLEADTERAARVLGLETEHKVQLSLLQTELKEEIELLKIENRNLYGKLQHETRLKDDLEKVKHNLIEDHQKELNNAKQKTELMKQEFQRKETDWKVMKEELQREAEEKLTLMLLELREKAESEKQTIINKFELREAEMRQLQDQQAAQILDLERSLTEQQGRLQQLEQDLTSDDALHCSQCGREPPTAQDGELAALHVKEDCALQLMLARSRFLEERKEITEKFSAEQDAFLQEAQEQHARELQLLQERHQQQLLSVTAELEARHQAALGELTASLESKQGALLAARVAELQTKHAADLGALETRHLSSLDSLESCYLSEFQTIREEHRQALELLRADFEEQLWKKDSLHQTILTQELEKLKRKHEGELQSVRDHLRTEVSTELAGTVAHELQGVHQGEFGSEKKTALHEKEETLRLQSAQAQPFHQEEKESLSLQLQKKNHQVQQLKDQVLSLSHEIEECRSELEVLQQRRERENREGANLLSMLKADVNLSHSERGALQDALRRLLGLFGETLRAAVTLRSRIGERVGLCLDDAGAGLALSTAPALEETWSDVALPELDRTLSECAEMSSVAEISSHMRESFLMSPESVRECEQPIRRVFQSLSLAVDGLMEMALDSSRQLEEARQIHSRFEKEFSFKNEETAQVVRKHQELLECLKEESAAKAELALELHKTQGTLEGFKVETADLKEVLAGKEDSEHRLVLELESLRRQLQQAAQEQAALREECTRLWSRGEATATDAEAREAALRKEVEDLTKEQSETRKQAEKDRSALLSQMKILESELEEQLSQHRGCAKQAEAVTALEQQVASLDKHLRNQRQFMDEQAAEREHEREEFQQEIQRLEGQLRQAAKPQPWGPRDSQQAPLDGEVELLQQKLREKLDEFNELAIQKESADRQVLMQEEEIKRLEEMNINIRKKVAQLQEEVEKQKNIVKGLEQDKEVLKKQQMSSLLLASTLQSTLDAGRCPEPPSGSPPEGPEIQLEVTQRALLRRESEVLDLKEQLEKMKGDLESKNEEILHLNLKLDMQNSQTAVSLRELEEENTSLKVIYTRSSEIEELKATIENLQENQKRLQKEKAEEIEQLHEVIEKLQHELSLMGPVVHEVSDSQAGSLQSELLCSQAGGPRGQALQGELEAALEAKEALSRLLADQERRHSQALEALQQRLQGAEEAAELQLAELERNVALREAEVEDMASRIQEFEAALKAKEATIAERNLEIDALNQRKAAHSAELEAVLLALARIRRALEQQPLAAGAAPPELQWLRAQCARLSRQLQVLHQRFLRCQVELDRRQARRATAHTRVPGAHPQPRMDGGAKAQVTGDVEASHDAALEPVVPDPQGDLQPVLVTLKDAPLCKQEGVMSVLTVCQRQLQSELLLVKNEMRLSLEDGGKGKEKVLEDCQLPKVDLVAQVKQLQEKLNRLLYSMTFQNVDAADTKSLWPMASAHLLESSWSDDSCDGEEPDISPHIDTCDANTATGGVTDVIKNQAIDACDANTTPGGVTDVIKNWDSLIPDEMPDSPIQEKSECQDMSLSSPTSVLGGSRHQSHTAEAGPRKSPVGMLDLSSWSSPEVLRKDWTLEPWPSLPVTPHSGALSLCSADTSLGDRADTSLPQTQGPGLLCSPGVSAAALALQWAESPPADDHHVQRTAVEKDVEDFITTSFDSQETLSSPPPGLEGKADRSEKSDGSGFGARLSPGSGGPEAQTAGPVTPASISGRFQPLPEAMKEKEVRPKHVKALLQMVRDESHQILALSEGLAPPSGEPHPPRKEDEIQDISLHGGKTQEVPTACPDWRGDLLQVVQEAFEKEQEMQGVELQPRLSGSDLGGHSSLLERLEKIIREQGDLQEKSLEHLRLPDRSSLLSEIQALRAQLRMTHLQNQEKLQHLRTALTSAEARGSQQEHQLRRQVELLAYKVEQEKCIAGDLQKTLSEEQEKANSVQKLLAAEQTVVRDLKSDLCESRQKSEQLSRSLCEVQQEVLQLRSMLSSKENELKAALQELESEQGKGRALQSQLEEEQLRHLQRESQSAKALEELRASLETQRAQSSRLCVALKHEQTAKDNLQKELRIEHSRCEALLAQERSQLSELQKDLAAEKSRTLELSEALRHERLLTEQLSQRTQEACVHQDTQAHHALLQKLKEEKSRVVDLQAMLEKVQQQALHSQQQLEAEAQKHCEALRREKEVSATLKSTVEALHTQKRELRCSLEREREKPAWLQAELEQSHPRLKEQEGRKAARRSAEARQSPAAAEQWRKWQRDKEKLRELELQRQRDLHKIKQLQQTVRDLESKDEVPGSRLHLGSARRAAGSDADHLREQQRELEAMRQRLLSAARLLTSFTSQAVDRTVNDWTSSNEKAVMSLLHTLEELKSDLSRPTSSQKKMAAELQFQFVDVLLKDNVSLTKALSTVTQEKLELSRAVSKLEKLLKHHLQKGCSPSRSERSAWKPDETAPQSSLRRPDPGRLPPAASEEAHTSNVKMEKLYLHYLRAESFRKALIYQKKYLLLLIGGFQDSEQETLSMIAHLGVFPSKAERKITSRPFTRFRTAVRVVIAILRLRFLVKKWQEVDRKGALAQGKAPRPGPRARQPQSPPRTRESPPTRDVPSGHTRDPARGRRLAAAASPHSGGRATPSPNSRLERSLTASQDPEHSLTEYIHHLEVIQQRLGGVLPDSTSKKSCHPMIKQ
UniProt O43924: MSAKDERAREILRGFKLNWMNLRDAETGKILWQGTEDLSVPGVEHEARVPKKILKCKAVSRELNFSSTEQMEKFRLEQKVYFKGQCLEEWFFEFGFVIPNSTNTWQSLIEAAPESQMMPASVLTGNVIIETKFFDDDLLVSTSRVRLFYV

Compound in the first assay: CNCc1ccc(-c2[nH]c3cc(F)cc4c3c2CCNC4=O)cc1 [rucaparib]
The assay is described as follows: log2 fold change, soluble protein after heating vs DMSO (PISA); higher = thermal stabilisation; K562 cells, 10 uM, 30 min; active = over 0.2 and 3.5 SD of the protein, either way, in both replicates (recomputed). Summed up: (§1)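 K562 cells at 2×10^6 cells/mL were given 10 μM compound for 30 min. Aliquots then went through 3 min of heating across 48°C-58°C, were pooled, and were extracted in PBS with 0.5% NP-40 at 4°C, and the supernatant after 21,000xg for 90 min was quantified by TMTpro 16plex LC-MS/MS with channel sums equalised. Thermal stability relative to control samples, from duplicates, is given as log2 fold change.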
Regarding PARP1 (UniProt P09874), the log2 fold change was active: 1.05.
On the same count and under the same terms, for PCLAF (UniProt Q15004) the value was inactive: -0.094; for PAFAH1B2 (UniProt P68402), inactive: 0.037; for PCYT1A (UniProt P49585), inactive: -0.127.
Same read-out and setting: with PATL1 (UniProt Q86TB9) the figure was inactive: 0.131; with PECAM1 (UniProt P16284), inactive: 0; with PCID2 (UniProt Q5JVF3), inactive: 0.051.
Same read-out and setting: with PARL (UniProt Q9H300) the figure was inactive: -0.005; with PDE2A (UniProt O00408), inactive: -0.051.
With PAK4 (UniProt O96013), the log2 fold change was inactive: -0.067.
Still for that read-out and setting: with PAK1 isoform 2 (UniProt Q13153) the figure was inactive: -0.082; with PARN (UniProt O95453), inactive: 0.079; with PDS5A (UniProt Q29RF7), inactive: -0.025.
Same read-out and setting: for PEX11B (UniProt O96011) the value was inactive: -0.006.
The same measure, in the same setting: with PCBP1 (UniProt Q15365) the figure was inactive: -0.015.
In the case of PACS1 (UniProt Q6VY07), the log2 fold change was inactive: 0.022.
Still for that read-out and setting: for PCBP2 isoform 3 (UniProt Q15366) the value was inactive: 0.041.
On the same count and under the same terms, for PEA15 isoform 2 (UniProt Q15121) the value was inactive: -0.037; for PBK (UniProt Q96KB5), inactive: 0.187; for PDPK1 (UniProt O15530), inactive: -0.056.
Same read-out and setting: for PCK2 (UniProt Q16822) the value was inactive: -0.009; for PARG (UniProt Q86W56), inactive: 0.044; for PCBP2 (UniProt F8VRH0), inactive: 0.066.
As to PDCD4 (UniProt Q53EL6), the log2 fold change was inactive: -0.113.
Still for that read-out and setting: for PDLIM7 (UniProt Q9NR12) the value was inactive: 0.002; for PCYT1B (UniProt Q9Y5K3), inactive: -0.139.
Same read-out and setting: for PCNT (UniProt O95613) the value was inactive: -0.116; for PDZD11 isoform 2 (UniProt Q5EBL8), inactive: 0.063.
Same read-out and setting: for PELP1 (UniProt Q8IZL8) the value was inactive: -0.054.

Compound in a further assay: CNc1nc(-c2ccc3c(N)n[nH]c3c2)cc(N2C[C@@H](C(=O)NC3CCCCC3)CC[C@H]2C)n1
The description is as above. Summed up:
as §1
For the target PARP1 (UniProt P09874), the log2 fold change was inactive: 0.038.
On to PCLAF (UniProt Q15004), for which the log2 fold change is inactive: -0.161.
Same read-out and setting: with PAFAH1B2 (UniProt P68402) the figure was inactive: 0.078.
Still for that read-out and setting: with PCYT1A (UniProt P49585) the figure was inactive: -0.097.
Same read-out and setting: for PATL1 (UniProt Q86TB9) the value was inactive: 0.025; for PECAM1 (UniProt P16284), inactive: 0.003.
Regarding PCIF1 (UniProt Q9H4Z3), the log2 fold change is inactive: 0.118.
Still for that read-out and setting: with PCID2 (UniProt Q5JVF3) the figure was inactive: 0.008; with PARL (UniProt Q9H300), inactive: -0.052.
Same read-out and setting: for PDE2A (UniProt O00408) the value was inactive: -0.065.
Still for that read-out and setting: with PAK4 (UniProt O96013) the figure was inactive: 0; with PAK1 isoform 2 (UniProt Q13153), inactive: -0.009; with PDE6D (UniProt O43924), inactive: 0.119.
PARN (UniProt O95453): the log2 fold change is inactive: -0.022.
The same measure, in the same setting: for PDS5A (UniProt Q29RF7) the value was inactive: 0.053; for PEX11B (UniProt O96011), inactive: -0.022.
The same measure, in the same setting: for PCBP1 (UniProt Q15365) the value was inactive: 0.03.
As for PACS1 (UniProt Q6VY07), the log2 fold change is inactive: 0.037.
The same measure, in the same setting: for PCBP2 isoform 3 (UniProt Q15366) the value was inactive: 0.013; for PEA15 isoform 2 (UniProt Q15121), inactive: 0.009; for PBX2 (UniProt P40425), inactive: -0.046.
On the same count and under the same terms, with PBK (UniProt Q96KB5) the figure was inactive: 0.005; with PDPK1 (UniProt O15530), active: 0.385; with PCK2 (UniProt Q16822), inactive: 0.015.
Same read-out and setting: with PARG (UniProt Q86W56) the figure was inactive: 0.115; with PCBP2 (UniProt F8VRH0), inactive: -0.014; with PDCD4 (UniProt Q53EL6), inactive: 0.114.
Turning to PDLIM7 (UniProt Q9NR12), the log2 fold change was inactive: -0.013.
Still for that read-out and setting: for PCYT1B (UniProt Q9Y5K3) the value was inactive: -0.036; for PCNT (UniProt O95613), inactive: 0.019.
Consider PDZD11 isoform 2 (UniProt Q5EBL8), for which the log2 fold change was inactive: -0.19.
On the same count and under the same terms, with PELP1 (UniProt Q8IZL8) the figure was inactive: -0.069.

Source of the values: the supplement of paper PMC10849652.
